Source: PubChem BioAssay (NCATS)
The shares of active, inactive and inconclusive entries below differ from those in the screen. For some of these results: A potency beside an inconclusive call is a rough fit, not a confirmed value. The source made the active and inactive calls. The call rests on the fitted dose curve; in most records, active means well fitted curve in the direction sought with a large enough effect; inconclusive means small, poorly fitted or top-dose-only effect, or another doubt; inactive means no such curve, though single readings can be large; an effect the other way counts as inactive or inconclusive.

How the values were obtained:
[1] = Quantitative High-Throughput drug screen in 47 multiple myeloma cell lines against the NCATS MIPE library collection: JIM3_ECACC cell viability assay (AID 1918963; further: nearly all actives have a fitted effect of over 35% in size); conditions: JIM3 myeloma viability, CellTiter-Glo ATP, 48 h; viability, percent of control: at 45.8 µM (top of the series)
How it was run: (§1)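 Steps: seed 500 cells per well; pin-transfer MIPE 4.0 library; incubate 48 h at 37C, 5% CO2, humidified; add CellTiter-Glo, 5 min room temperature; read luminescence.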

[2] = Quantitative High-Throughput drug screen in 47 multiple myeloma cell lines against the NCATS MIPE library collection: JIM1_ECACC cell viability assay (AID 1918964); conditions: JIM1 myeloma viability, CellTiter-Glo ATP luminescence, 48 h; viability (% of DMSO): at 45.8 µM (top of the series)
How it was run: as §1

[3] = Quantitative High-Throughput drug screen in 47 multiple myeloma cell lines against the NCATS MIPE library collection: KMS20_JCRB cell viability assay (AID 1918973); conditions: CellTiter-Glo ATP, 48 h; viability (% of DMSO): at 45.8 µM (top of the series); further: nearly all actives have a fitted effect of over 45% in size
How it was run: as §1

[4] = Quantitative High-Throughput drug screen in 47 multiple myeloma cell lines against the NCATS MIPE library collection: KMS21BM_JCRB cell viability assay (AID 1918974); conditions: ATP luminescence, 48 h; viability: at 45.8 µM (top of the series)
How it was run: as §1

[5] = Quantitative High-Throughput drug screen in 47 multiple myeloma cell lines against the NCATS MIPE library collection: MOLP8_DSMZ cell viability assay (AID 1918977); further: nearly all actives have a fitted effect of over 45% in size
How it was run: (§2)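 500 cells/well; MIPE 4.0 drugs pin-transferred; 48 h, 37C, 5% CO2. CellTiter-Glo, 5 min RT, luminescence. Controls: DMSO 100%, media 0%.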

[6] = Quantitative High-Throughput drug screen in 47 multiple myeloma cell lines against the NCATS MIPE library collection: KHM11_PLB cell viability assay (AID 1918962); conditions: KHM11 myeloma cell viability, CellTiter-Glo ATP luminescence, 48 h; viability, % of DMSO control: at 45.8 µM (top of the series); further: nearly all actives have a fitted effect of over 35% in size
How it was run: as §1

[7] = Quantitative High-Throughput drug screen in 47 multiple myeloma cell lines against the NCATS MIPE library collection: JJN3_DSMZ cell viability assay (AID 1918966; further: nearly all actives have a fitted effect of over 50% in size)
How it was run: as §1

[8] = Quantitative High-Throughput drug screen in 47 multiple myeloma cell lines against the NCATS MIPE library collection: KMS26_JCRB cell viability assay (AID 1918975); conditions: KMS26 myeloma cells viability, CellTiter-Glo ATP, 48 h; viability (% of DMSO): at 45.8 µM (top of the series); further: nearly all actives have a fitted effect of over 45% in size
How it was run: as §1

[9] = Quantitative High-Throughput drug screen in 47 multiple myeloma cell lines against the NCATS MIPE library collection: OCIMY1_PLB cell viability assay (AID 1918979); further: nearly all actives have a fitted effect of over 35% in size
How it was run: as §2

[10] = Quantitative High-Throughput drug screen in 47 multiple myeloma cell lines against the NCATS MIPE library collection: MM1R_ATCC cell viability assay (AID 1918981); further: nearly all actives have a fitted effect of over 35% in size
How it was run: as §2

[11] = Quantitative High-Throughput drug screen in 47 multiple myeloma cell lines against the NCATS MIPE library collection: INA6_PLB cell viability assay (AID 1918965; further: nearly all actives have a fitted effect of over 55% in size); conditions: INA6 myeloma viability, CellTiter-Glo ATP luminescence, 48 h; viability (% of control): at 45.8 µM (top of the series)
How it was run: (§3)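 CellTiter-Glo luminescence (ATP) after 48 h compound exposure, 37C/5% CO2; 500 cells/well; MIPE 4.0 approved/investigational drugs pinned in; DMSO = 100%, media only = 0% viability.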

[12] = Quantitative High-Throughput drug screen in 47 multiple myeloma cell lines against the NCATS MIPE library collection: Karpas25_ECACC cell viability assay (AID 1918968; further: nearly all actives have a fitted effect of over 35% in size)
How it was run: as §1

[13] = Quantitative High-Throughput drug screen in 47 multiple myeloma cell lines against the NCATS MIPE library collection: KMS12BM_JCRB cell viability assay (AID 1918971); further: nearly all actives have a fitted effect of over 35% in size
How it was run: as §1

[14] = Quantitative High-Throughput drug screen in 47 multiple myeloma cell lines against the NCATS MIPE library collection: MMM1_PLB cell viability assay (AID 1918976); further: nearly all actives have a fitted effect of over 35% in size
How it was run: as §2

[15] = Quantitative High-Throughput drug screen in 47 multiple myeloma cell lines against the NCATS MIPE library collection: NCIH929_DSMZ cell viability assay (AID 1918978); conditions: NCI-H929 myeloma viability, CellTiter-Glo ATP, 48 h; viability, % of control: at 45.8 µM (top of the series); further: nearly all actives have a fitted effect of over 35% in size
How it was run: as §2

[16] = Quantitative High-Throughput drug screen in 47 multiple myeloma cell lines against the NCATS MIPE library collection: KMS27_JCRB cell viability assay (AID 1918970); conditions: KMS27 myeloma cells, CellTiter-Glo ATP viability, 48 h; viability (% of DMSO): at 45.8 µM (top of the series); further: nearly all actives have a fitted effect of over 30% in size
How it was run: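 Each line is seeded at 500 cells per well and treated with library compounds for 48 hours under 37 °C, 5% CO2. CellTiter-Glo is then added for 5 min at room temperature before median relative luminescence is recorded.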

[17] = Quantitative High-Throughput drug screen in 47 multiple myeloma cell lines against the NCATS MIPE library collection: KMS12PE_JCRB cell viability assay (AID 1918972); conditions: KMS12PE myeloma viability, CellTiter-Glo ATP, 48 h; viability: at 45.8 µM (top of the series); further: nearly all actives have a fitted effect of over 30% in size
How it was run: as §3

[18] = Quantitative High-Throughput drug screen in 47 multiple myeloma cell lines against the NCATS MIPE library collection: Karpas417_ECACC cell viability assay (AID 1918961); conditions: Karpas417 myeloma viability, CellTiter-Glo ATP luminescence, 48 h; viability (% of DMSO): at 45.8 µM (top of the series)
How it was run: as §3

[19] = Quantitative High-Throughput drug screen in 47 multiple myeloma cell lines against the NCATS MIPE library collection: MM1S_ATCC cell viability assay (AID 1918980); further: nearly all actives have a fitted effect of over 45% in size
How it was run: as §2
Potency means the concentration at half of the fitted maximal effect.

O=c1[nH]c2ccc(Cl)cc2c(N[C@@H]2CN3CCC2CC3)c1-c1nc2ccccc2[nH]1
active: Potency [1] 74.3 nM | Potency [2] 41.8 nM | Potency [3] 166 nM | Potency [4] 26.4 nM | Potency [5] 743 nM

COc1cc([C@@H]2c3cc4c(cc3[C@@H](O)C3COC(=O)C32)OCO4)cc(OC)c1O (stereo partly specified)
active: Potency [7] 118 nM | Potency [3] 66.2 nM | Potency [8] 105 nM | Potency [5] 418 nM | Potency [9] 41.8 nM | Potency [10] 83.3 nM
inconclusive: Potency [6] 5.9 nM [cytotoxic, full curve]

Cc1c(N)nc([C@H](CC(N)=O)NC[C@@H](N)C(N)=O)nc1C(=O)N[C@H](C(=O)N[C@@H](C)[C@H](O)[C@@H](C)C(=O)N[C@@H](C(=O)NCCc1nc(-c2nc(C(=O)NCCC[S+](C)C)cs2)cs1)[C@@H](C)O)C(O[C@H]1O[C@H](CO)[C@H](O)[C@@H](O)[C@@H]1O[C@H]1O[C@H](CO)[C@@H](O)[C@H](OC(N)=O)[C@H]1O)c1cnc[nH]1 (stereo partly specified)
inconclusive: Potency [6] 418 nM [cytotoxic, full curve, poor fit] | Potency [1] 590 nM [cytotoxic, full curve, poor fit] | Potency [2] 105 nM [cytotoxic, full curve, poor fit] | Potency [11] 1320 nM [cytotoxic, full curve, poor fit] | Potency [7] 1 nM | Potency [12] 8330 nM [cytotoxic, partial curve, poor fit] | Potency [13] 296 nM [cytotoxic, full curve, poor fit] | Potency [8] 18700 nM [rising, partial curve] | Potency [14] 20900 nM [cytotoxic, single point] | Potency [5] 743 nM [cytotoxic, full curve, poor fit] | Potency [15] 13200 nM [cytotoxic, partial curve] | Potency [10] 20900 nM [cytotoxic, partial curve]

O=C(N[C@H]1CN2CCC1CC2)c1ccc(Cl)cc1
inconclusive: Potency [2] 37200 nM [cytotoxic, single point] | viability (% of control) [11] 103% [cytotoxic] | Potency [7] 37200 nM [rising, single point] | Potency [12] 29600 nM [cytotoxic, single point] | Potency [16] 33200 nM [cytotoxic, single point] | Potency [17] 33200 nM [cytotoxic, single point] | Potency [3] 23500 nM [cytotoxic, partial curve, poor fit] | Potency [14] 16.6 nM [rising, full curve, poor fit] | Potency [5] 1.3 nM [cytotoxic, full curve, poor fit] | Potency [15] 20900 nM [cytotoxic, single point] | Potency [9] 26400 nM [rising, single point]
active: Potency [4] 37200 nM
inactive: Potency [6] | Potency [13] | Potency [8]

N=c1c2c(-c3ccccc3)c(-c3ccccc3)n(Cc3ccccc3)c2ncn1C1CCC(O)CC1 (stereo unspecified)
active: Potency [2] 833 nM | Potency [17] 2640 nM | Potency [19] 5260 nM
inconclusive: Potency [18] 8330 nM [cytotoxic, partial curve, poor fit] | Potency [4] 469 nM [cytotoxic, full curve, poor fit] | Potency [5] 7430 nM [cytotoxic, partial curve, poor fit] | Potency [9] 37200 nM [cytotoxic, single point]
